# Where a name gives a salt, the structure may show the parent alone. This is one part of the list. Plates or batches differ in their baseline, so values are only roughly comparable.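 Wild-type or misfolding-prone missense mutant B-domain-deleted factor VIII, fused to Gaussia luciferase, is stably expressed in HEK293 lines. Each score is (mean triplicate-well luminescence minus DMSO mean) divided by DMSO standard deviation. Hits score at least 2; lower scores could stem from decreased secretion or poorer cell viability.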
# Experiments:
# HEK293 WT BDD-FVIII-Gluc = experiment: secreted FVIII-Gluc luciferase Z-score vs DMSO control; higher = more FVIII-Gluc secretion; details: 5 µM; 24 h
# [1] = test system: HEK293 p.N1941S BDD-FVIII-Gluc; experiment: as above; details: 5 µM; 24 h
SMILES,secreted FVIII-Gluc luciferase Z-score (HEK293 WT BDD-FVIII-Gluc),secreted FVIII-Gluc luciferase Z-score [1]
Cc1cc(C(C)(C)C)cc(C)c1CC1=NCCN1 [Xylometazoline HCl],inactive: 0.659,inactive: 0.509
CC(C(=O)O)c1ccc2c(c1)[nH]c1ccc(Cl)cc12 (stereo not given) [Carprofen],inactive: 0.121,inactive: -0.256
C=C[C@]1(C)C[C@@H](OC(=O)CSC(C)(C)CNC(=O)[C@H](N)C(C)C)[C@]2(C)[C@H](C)CC[C@]3(CCC(=O)[C@H]32)[C@@H](C)[C@@H]1O [Valnemulin HCl],inactive: -1.31,inactive: -2.09
[O-]n1ccccc1=S.[O-]n1ccccc1=S.[Zn+2] [Pyrithione zinc],inactive: -11.3,inactive: -5.79
CCOc1cc(N)c(Cl)cc1C(=O)NCC1CN(Cc2ccc(F)cc2)CCO1 (stereo not given) [Mosapride citrate],inactive: -1.48,inactive: -1.48
CN1CCN(c2cc3c(cc2F)c(=O)c(C(=O)O)cn3-c2ccc(F)cc2)CC1 [Difloxacin HCl],inactive: 0.547,inactive: 0.843
NC(CO)C(=O)NNCc1ccc(O)c(O)c1O (stereo not given) [Benserazide],inactive: -1.36,inactive: -0.831
CN1CCCC(n2nc(Cc3ccc(Cl)cc3)c3ccccc3c2=O)CC1 (stereo not given) [Azelastine hydrochloride (Astelin)],active: 2.42,inactive: -2.47
CC1(C)[C@H](C(=O)O)N2C(=O)C[C@H]2S1(=O)=O [Sulbactam],inactive: -0.0819,inactive: 0.681
"Cn1cnc([N+](=O)[O-])c1Sc1ncnc2[nH]cnc12 [Azathioprine (Azasan, Imuran)]",inactive: -5.32,inactive: -1.69
CCCC(=O)O[C@]1(C(=O)COC(C)=O)CC[C@H]2[C@@H]3C[C@H](F)C4=CC(=O)C=C[C@]4(C)[C@@]3(F)[C@@H](O)C[C@@]21C [Difluprednate],active: 11.1,active: 4.75
NC(=O)OCC(COC(N)=O)c1ccccc1 [Felbamate],inactive: -3.8,inactive: -2.09
Nc1nc2n[nH]nc2c(=O)[nH]1 [Azaguanine-8],inactive: 0.459,inactive: 0.574
C[N+](C)(C)CC(O)CC(=O)[O-] (racemic) [DL-Carnitine hydrochloride],inactive: -0.702,inactive: -1.33
C[C@]12C=CC(=O)C=C1CC[C@@H]1[C@@H]2C(=O)C[C@@]2(C)[C@H]1CC[C@]2(O)C(=O)CO [Prednisone (Adasone)],inactive: -1.3,inactive: 0.61
CC(C)c1nc(N(C)S(C)(=O)=O)nc(-c2ccc(F)cc2)c1/C=C/[C@@H](O)C[C@@H](O)CC(=O)O [Rosuvastatin calcium (Crestor)],inactive: -0.406,inactive: -0.731
Nc1ccc(S(=O)(=O)Nc2ncccn2)cc1 [Sulfadiazine],inactive: -3.19,inactive: -0.0659
Cc1nccn1CC1CCc2c(c3ccccc3n2C)C1=O (stereo not given) [Ondansetron hydrochloride (Zofran)],inactive: -12.7,inactive: 0.539
CCCS(=O)(=O)Nc1ccc(F)c(C(=O)c2c[nH]c3ncc(-c4ccc(Cl)cc4)cc23)c1F [Vemurafenib (PLX4032)],inactive: 1.96,inactive: -1.5
O=C(Nc1c(Cl)cncc1Cl)c1ccc(OC(F)F)c(OCC2CC2)c1 [Roflumilast (Daxas)],inactive: 0.819,inactive: -0.671
CC(=O)Nc1ccccc1 [Acetanilide (Antifebrin)],inactive: -1.49,inactive: -4.48
CC[C@]1(O)C[C@@H]2CN(CCc3c([nH]c4ccccc34)[C@@](C(=O)OC)(c3cc4c(cc3OC)N(C)[C@H]3[C@@](O)(C(=O)OC)[C@H](OC(C)=O)[C@]5(CC)C=CCN6CC[C@]43[C@@H]65)C2)C1 [Vinblastine sulfate],inactive: -4.43,inactive: -5.12
CCN(CC)CC(=O)Nc1c(C)cccc1C [Lidocaine (Alphacaine)],inactive: -3.11,inactive: -0.579
O=C1CN2Cc3c(ccc(Cl)c3Cl)N=C2N1 [Anagrelide HCl],inactive: -1.17,inactive: -1.29
CCC[C@H](NC(=O)[C@@H]1[C@H]2CCC[C@H]2CN1C(=O)[C@@H](NC(=O)[C@@H](NC(=O)c1cnccn1)C1CCCCC1)C(C)(C)C)C(=O)C(=O)NC1CC1 [Telaprevir (VX-950)],inactive: -3.7,inactive: -1.12

# Quoted from the entries so far (2 entries):
SMILES,secreted FVIII-Gluc luciferase Z-score (HEK293 WT BDD-FVIII-Gluc),secreted FVIII-Gluc luciferase Z-score [1]
C=C[C@]1(C)C[C@@H](OC(=O)CSC(C)(C)CNC(=O)[C@H](N)C(C)C)[C@]2(C)[C@H](C)CC[C@]3(CCC(=O)[C@H]32)[C@@H](C)[C@@H]1O [Valnemulin HCl],inactive: -1.31,inactive: -2.09
[O-]n1ccccc1=S.[O-]n1ccccc1=S.[Zn+2] [Pyrithione zinc],inactive: -11.3,inactive: -5.79

# From the supplement of paper PMC12024529
